Laboratory results taken from paper PMC5323046.
Results are given in words; binding and its absence hold for the method and conditions named. For some assays here: Binding seen in cells or lysates may run through a third protein. Some entries that bind do so weakly or less than the wild type. Sequences can lack the tags named with a protein.

Assays:
[1] = target: T1, HA-tagged C9ORF72 (human) (UniProt Q96LT7); assay: native gel or EMSA; HA-IP from 293T-REx cells inducibly expressing HA-tagged SMCR8, C9ORF72, ATG13 or ULK1, elution with HA peptide in PBS, Native PAGE (3-12% Bis-Tris), then immunoblot or in-gel digestion and mass spectrometry
T1 sequence: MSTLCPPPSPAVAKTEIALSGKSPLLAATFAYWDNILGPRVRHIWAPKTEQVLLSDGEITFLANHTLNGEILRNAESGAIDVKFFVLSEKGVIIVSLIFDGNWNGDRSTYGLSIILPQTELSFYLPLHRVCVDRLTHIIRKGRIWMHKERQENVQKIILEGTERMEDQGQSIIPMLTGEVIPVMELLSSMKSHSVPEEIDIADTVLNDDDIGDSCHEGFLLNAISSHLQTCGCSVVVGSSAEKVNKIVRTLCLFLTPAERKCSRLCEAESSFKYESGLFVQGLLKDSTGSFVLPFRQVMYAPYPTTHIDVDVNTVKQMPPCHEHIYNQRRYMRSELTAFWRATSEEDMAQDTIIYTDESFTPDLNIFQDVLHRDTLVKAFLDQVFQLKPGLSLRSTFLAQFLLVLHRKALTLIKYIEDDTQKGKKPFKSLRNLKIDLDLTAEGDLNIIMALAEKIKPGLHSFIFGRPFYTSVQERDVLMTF

HA-tagged ATG13 (human) [2] = target: T2, HA-tagged ATG13 (human) (UniProt O75143); assay: co-IP; HA-IP (anti-HA-agarose, overnight, 4°C, MCLB buffer) from 293T-REx cells inducibly expressing HA-tagged bait, empty cells (MOCK) as control; SDS-PAGE and immunoblot of endogenous partners; cells untreated, with DMSO or 250 nM Torin1 for 2 hr, or starved with EBSS for 2 hr
T2 sequence: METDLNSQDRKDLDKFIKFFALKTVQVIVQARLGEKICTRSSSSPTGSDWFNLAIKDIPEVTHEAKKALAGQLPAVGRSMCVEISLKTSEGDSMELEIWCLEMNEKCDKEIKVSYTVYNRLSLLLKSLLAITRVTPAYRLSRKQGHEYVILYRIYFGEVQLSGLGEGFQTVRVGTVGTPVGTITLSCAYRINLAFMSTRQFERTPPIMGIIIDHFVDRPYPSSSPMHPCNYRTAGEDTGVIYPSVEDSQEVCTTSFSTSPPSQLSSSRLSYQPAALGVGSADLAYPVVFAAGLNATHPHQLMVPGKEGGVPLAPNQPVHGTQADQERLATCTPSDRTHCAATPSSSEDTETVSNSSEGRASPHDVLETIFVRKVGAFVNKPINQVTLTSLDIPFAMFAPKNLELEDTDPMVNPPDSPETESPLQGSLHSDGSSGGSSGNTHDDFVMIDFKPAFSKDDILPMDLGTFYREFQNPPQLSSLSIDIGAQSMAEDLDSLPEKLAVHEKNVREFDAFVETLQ

[3] = target: T3, HA-tagged C9ORF72 (human), Q96LT7; assay: native gel or EMSA; HA-IP from 293T-REx cells inducibly expressing HA-tagged SMCR8, C9ORF72, ATG13 or ULK1, elution with HA peptide in PBS, Native PAGE (3-12% Bis-Tris), then immunoblot or in-gel digestion and mass spectrometry; details: remark: other sources report otherwise
T3 chain: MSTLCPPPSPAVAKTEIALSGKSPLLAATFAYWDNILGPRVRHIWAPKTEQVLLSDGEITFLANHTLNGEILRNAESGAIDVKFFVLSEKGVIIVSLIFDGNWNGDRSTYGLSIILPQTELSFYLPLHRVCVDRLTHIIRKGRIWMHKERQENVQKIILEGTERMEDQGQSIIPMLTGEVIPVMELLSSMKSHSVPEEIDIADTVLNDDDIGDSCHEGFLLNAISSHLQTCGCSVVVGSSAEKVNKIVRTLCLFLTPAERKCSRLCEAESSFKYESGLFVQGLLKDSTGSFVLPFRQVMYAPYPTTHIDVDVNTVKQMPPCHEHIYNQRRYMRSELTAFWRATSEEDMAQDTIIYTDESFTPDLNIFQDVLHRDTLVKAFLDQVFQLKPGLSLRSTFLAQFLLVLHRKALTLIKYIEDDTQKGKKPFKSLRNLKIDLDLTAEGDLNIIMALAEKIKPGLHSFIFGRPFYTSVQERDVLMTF

HA-tagged ATG13 (human) [4] = target: T2, HA-tagged ATG13 (human); assay: as above
[5] = target: T4, HA-tagged full-length SMCR8 (human) (UniProt Q8TEV9); assay: as above
T4 sequence: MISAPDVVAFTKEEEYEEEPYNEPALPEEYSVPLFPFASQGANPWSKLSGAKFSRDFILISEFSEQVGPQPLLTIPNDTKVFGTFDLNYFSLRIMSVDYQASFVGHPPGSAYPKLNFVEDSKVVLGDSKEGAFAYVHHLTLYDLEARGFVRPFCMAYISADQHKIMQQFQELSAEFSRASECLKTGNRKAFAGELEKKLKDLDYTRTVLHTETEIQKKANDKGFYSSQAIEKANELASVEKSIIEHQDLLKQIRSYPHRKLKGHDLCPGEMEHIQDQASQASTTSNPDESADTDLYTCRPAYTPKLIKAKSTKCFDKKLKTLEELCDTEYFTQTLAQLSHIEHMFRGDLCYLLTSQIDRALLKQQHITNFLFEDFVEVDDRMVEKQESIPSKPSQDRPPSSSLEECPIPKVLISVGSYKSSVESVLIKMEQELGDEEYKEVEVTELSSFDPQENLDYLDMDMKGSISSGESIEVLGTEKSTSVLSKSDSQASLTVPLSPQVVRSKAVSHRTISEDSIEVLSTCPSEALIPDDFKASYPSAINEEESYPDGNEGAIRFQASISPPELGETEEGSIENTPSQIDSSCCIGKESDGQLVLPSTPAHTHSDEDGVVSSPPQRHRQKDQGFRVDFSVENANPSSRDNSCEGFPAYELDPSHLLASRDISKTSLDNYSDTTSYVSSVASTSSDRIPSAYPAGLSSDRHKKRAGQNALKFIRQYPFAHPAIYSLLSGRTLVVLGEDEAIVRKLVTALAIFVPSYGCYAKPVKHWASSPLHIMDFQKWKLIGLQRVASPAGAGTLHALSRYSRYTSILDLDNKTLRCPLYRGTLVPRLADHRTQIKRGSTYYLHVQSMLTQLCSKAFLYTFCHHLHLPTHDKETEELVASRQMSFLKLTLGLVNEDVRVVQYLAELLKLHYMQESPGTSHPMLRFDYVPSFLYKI

B1: endogenous SMCR8 (protein, UniProt Q8TEV9 1-937)
chain: MISAPDVVAFTKEEEYEEEPYNEPALPEEYSVPLFPFASQGANPWSKLSGAKFSRDFILISEFSEQVGPQPLLTIPNDTKVFGTFDLNYFSLRIMSVDYQASFVGHPPGSAYPKLNFVEDSKVVLGDSKEGAFAYVHHLTLYDLEARGFVRPFCMAYISADQHKIMQQFQELSAEFSRASECLKTGNRKAFAGELEKKLKDLDYTRTVLHTETEIQKKANDKGFYSSQAIEKANELASVEKSIIEHQDLLKQIRSYPHRKLKGHDLCPGEMEHIQDQASQASTTSNPDESADTDLYTCRPAYTPKLIKAKSTKCFDKKLKTLEELCDTEYFTQTLAQLSHIEHMFRGDLCYLLTSQIDRALLKQQHITNFLFEDFVEVDDRMVEKQESIPSKPSQDRPPSSSLEECPIPKVLISVGSYKSSVESVLIKMEQELGDEEYKEVEVTELSSFDPQENLDYLDMDMKGSISSGESIEVLGTEKSTSVLSKSDSQASLTVPLSPQVVRSKAVSHRTISEDSIEVLSTCPSEALIPDDFKASYPSAINEEESYPDGNEGAIRFQASISPPELGETEEGSIENTPSQIDSSCCIGKESDGQLVLPSTPAHTHSDEDGVVSSPPQRHRQKDQGFRVDFSVENANPSSRDNSCEGFPAYELDPSHLLASRDISKTSLDNYSDTTSYVSSVASTSSDRIPSAYPAGLSSDRHKKRAGQNALKFIRQYPFAHPAIYSLLSGRTLVVLGEDEAIVRKLVTALAIFVPSYGCYAKPVKHWASSPLHIMDFQKWKLIGLQRVASPAGAGTLHALSRYSRYTSILDLDNKTLRCPLYRGTLVPRLADHRTQIKRGSTYYLHVQSMLTQLCSKAFLYTFCHHLHLPTHDKETEELVASRQMSFLKLTLGLVNEDVRVVQYLAELLKLHYMQESPGTSHPMLRFDYVPSFLYKI
Question: For B1, which binding [1] is on record?
Answer: binds

Question: And the binding (HA-tagged ATG13 (human) [2])?
Answer: binds

B2: endogenous WDR41, Q9HAD4 1-459 (protein)
chain: MLRWLIGGGREPQGLAEKSPLQTIGEEQTQNPYTELLVLKAHHDIVRFLVQLDDYRFASAGDDGIVVVWNAQTGEKLLELNGHTQKITAIITFPSLESCEEKNQLILTASADRTVIVWDGDTTRQVQRISCFQSTVKCLTVLQRLDVWLSGGNDLCVWNRKLDLLCKTSHLSDTGISALVEIPKNCVVAAVGKELIIFRLVAPTEGSLEWDILEVKRLLDHQDNILSLINVNDLSFVTGSHVGELIIWDALDWTMQAYERNFWDPSPQLDTQQEIKLCQKSNDISIHHFTCDEENVFAAVGRGLYVYSLQMKRVIACQKTAHDSNVLHVARLPNRQLISCSEDGSVRIWELREKQQLAAEPVPTGFFNMWGFGRVSKQASQPVKKQQENATSCSLELIGDLIGHSSSVEMFLYFEDHGLVTCSADHLIILWKNGERESGLRSLRLFQKLEENGDLYLAV
Question: Which binding [3] does the source give for B2 here?
Answer: binds

B3: endogenous ATG101 (protein, UniProt Q9BSB4 1-218)
chain: MNCRSEVLEVSVEGRQVEEAMLAVLHTVLLHRSTGKFHYKKEGTYSIGTVGTQDVDCDFIDFTYVRVSSEELDRALRKVVGEFKDALRNSGGDGLGQMSLEFYQKKKSRWPFSDECIPWEVWTVKVHVVALATEQERQICREKVGEKLCEKIINIVEVMNRHEYLPKMPTQSEVDNVFDTGLRDVQPYLYKISFQITDALGTSVTTTMRRLIKDTLAL
Question: Which binding (HA-tagged ATG13 (human) [4]) does the source give for B3 here?
Answer: binds

Question: And the binding [5]?
Answer: binds
